Results taken from publication PMC4314728.
No constants are given. Whether binding was seen depends on the method and setting. In cells and extracts the contact can be indirect. Some binding calls cover weakened binding; strength is not graded here.

Amino acid sequences for entries named in this document (tags omitted). Residues count along the entry.
UniProt P41231: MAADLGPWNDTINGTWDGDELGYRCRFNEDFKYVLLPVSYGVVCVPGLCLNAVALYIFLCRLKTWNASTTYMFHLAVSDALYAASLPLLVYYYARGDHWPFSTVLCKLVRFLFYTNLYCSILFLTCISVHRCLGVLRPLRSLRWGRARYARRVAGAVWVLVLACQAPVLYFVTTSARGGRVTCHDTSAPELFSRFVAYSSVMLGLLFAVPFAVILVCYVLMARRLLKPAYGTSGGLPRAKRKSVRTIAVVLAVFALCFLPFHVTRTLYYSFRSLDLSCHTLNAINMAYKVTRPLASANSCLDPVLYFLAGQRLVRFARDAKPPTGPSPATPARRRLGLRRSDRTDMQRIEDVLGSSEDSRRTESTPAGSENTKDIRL
UniProt P35968, residues 20-1356: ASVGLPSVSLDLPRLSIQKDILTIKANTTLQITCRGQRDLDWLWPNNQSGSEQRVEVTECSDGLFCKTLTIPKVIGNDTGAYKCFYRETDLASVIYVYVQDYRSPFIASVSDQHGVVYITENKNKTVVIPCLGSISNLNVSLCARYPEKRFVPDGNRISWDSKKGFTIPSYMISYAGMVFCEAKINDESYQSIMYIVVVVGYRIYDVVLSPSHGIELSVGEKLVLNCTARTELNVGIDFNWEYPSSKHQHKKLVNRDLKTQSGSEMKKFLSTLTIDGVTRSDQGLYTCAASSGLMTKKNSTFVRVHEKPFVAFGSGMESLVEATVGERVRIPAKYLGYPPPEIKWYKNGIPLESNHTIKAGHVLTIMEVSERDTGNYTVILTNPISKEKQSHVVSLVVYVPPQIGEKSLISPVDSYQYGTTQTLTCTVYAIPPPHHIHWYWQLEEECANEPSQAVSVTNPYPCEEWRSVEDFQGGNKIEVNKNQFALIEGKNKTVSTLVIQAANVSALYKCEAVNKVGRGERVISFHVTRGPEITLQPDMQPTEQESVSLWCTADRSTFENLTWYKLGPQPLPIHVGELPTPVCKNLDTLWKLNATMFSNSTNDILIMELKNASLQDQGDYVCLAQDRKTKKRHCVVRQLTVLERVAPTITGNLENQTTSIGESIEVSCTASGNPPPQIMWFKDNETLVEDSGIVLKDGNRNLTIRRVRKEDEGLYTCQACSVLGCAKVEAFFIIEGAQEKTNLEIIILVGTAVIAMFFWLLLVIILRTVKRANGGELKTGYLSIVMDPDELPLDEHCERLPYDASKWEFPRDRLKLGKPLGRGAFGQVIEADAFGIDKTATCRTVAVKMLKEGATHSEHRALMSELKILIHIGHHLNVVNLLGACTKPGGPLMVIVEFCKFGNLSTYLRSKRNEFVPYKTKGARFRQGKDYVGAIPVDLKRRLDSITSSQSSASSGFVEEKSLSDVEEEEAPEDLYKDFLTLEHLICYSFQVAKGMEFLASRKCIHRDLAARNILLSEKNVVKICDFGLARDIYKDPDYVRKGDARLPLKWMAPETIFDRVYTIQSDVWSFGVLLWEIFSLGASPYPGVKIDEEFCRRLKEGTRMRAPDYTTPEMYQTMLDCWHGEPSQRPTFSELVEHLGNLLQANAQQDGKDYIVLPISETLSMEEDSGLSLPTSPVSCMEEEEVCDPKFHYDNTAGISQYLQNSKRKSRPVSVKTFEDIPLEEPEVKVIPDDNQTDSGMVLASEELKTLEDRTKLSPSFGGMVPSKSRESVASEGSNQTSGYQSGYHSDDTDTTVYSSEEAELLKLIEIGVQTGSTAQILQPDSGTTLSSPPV

T1: vav2 (guanine nucleotide exchange factor for Rac), endogenous in HCAECs (human (endogenous in HCAECs)) (UniProt P52735)
T1 sequence: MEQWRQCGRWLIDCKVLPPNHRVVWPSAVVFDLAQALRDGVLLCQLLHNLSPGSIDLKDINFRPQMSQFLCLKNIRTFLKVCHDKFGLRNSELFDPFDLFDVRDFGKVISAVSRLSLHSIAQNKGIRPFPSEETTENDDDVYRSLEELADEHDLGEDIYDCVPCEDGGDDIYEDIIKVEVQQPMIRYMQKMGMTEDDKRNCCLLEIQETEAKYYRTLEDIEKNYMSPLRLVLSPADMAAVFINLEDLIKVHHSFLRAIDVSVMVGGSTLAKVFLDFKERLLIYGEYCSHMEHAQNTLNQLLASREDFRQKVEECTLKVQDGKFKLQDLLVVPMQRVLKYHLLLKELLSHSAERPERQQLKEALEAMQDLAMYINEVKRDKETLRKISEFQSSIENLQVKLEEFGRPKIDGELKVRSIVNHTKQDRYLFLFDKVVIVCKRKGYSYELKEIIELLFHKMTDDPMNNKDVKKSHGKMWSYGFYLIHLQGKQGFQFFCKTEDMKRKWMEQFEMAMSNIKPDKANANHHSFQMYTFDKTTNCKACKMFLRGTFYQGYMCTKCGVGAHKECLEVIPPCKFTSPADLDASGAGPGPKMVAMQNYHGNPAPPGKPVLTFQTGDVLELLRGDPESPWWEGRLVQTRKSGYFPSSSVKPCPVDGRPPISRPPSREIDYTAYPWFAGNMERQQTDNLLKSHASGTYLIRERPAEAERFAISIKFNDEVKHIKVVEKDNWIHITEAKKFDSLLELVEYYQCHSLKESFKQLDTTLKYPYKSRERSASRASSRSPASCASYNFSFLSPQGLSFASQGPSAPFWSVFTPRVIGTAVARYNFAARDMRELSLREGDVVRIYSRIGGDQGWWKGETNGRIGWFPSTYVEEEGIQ

B1: Vascular endothelial cadherin (VE-cadherin), endogenous in HCAECs (protein, UniProt P33151 48-784)
chain: DWIWNQMHIDEEKNTSLPHHVGKIKSSVSRKNAKYLLKGEYVGKVFRVDAETGDVFAIERLDRENISEYHLTAVIVDKDTGENLETPSSFTIKVHDVNDNWPVFTHRLFNASVPESSAVGTSVISVTAVDADDPTVGDHASVMYQILKGKEYFAIDNSGRIITITKSLDREKQARYEIVVEARDAQGLRGDSGTATVLVTLQDINDNFPFFTQTKYTFVVPEDTRVGTSVGSLFVEDPDEPQNRMTKYSILRGDYQDAFTIETNPAHNEGIIKPMKPLDYEYIQQYSFIVEATDPTIDLRYMSPPAGNRAQVIINITDVDEPPIFQQPFYHFQLKENQKKPLIGTVLAMDPDAARHSIGYSIRRTSDKGQFFRVTKKGDIYNEKELDREVYPWYNLTVEAKELDSTGTPTGKESIVQVHIEVLDENDNAPEFAKPYQPKVCENAVHGQLVLQISAIDKDITPRNVKFKFILNTENNFTLTDNHDNTANITVKYGQFDREHTKVHFLPVVISDNGMPSRTGTSTLTVAVCKCNEQGEFTFCEDMAAQVGVSIQAVVAILLCILTITVITLLIFLRRRLRKQARAHGKSVPEIHEQLVTYDEEGGGEMDTTSYDVSVLNSVRRGGAKPPRPALDARPSLYAQVQKPPRHAPGAHGGPGEMAAMIEVKKDEADHDGDGPPYDTLHIYGYEGSESIAESLSSLGTDSSDSDVDYDFLNDWGPRFKMLAELYGSDPREELLY
B2: p120 catenin, endogenous in HCAECs (protein, UniProt O60716 1-968)
chain: MDDSEVESTASILASVKEQEAQFEKLTRALEEERRHVSAQLERVRVSPQDANPLMANGTLTRRHQNGRFVGDADLERQKFSDLKLNGPQDHSHLLYSTIPRMQEPGQIVETYTEEDPEGAMSVVSVETSDDGTTRRTETTVKKVVKTVTTRTVQPVAMGPDGLPVDASSVSNNYIQTLGRDFRKNGNGGPGPYVGQAGTATLPRNFHYPPDGYSRHYEDGYPGGSDNYGSLSRVTRIEERYRPSMEGYRAPSRQDVYGPQPQVRVGGSSVDLHRFHPEPYGLEDDQRSMGYDDLDYGMMSDYGTARRTGTPSDPRRRLRSYEDMIGEEVPSDQYYWAPLAQHERGSLASLDSLRKGGPPPPNWRQPELPEVIAMLGFRLDAVKSNAAAYLQHLCYRNDKVKTDVRKLKGIPVLVGLLDHPKKEVHLGACGALKNISFGRDQDNKIAIKNCDGVPALVRLLRKARDMDLTEVITGTLWNLSSHDSIKMEIVDHALHALTDEVIIPHSGWEREPNEDCKPRHIEWESVLTNTAGCLRNVSSERSEARRKLRECDGLVDALIFIVQAEIGQKDSDSKLVENCVCLLRNLSYQVHREIPQAERYQEAAPNVANNTGPHAASCFGAKKGKDEWFSRGKKPIEDPANDTVDFPKRTSPARGYELLFQPEVVRIYISLLKESKTPAILEASAGAIQNLCAGRWTYGRYIRSALRQEKALSAIADLLTNEHERVVKAASGALRNLAVDARNKELIGKHAIPNLVKNLPGGQQNSSWNFSEDTVISILNTINEVIAENLEAAKKLRETQGIEKLVLINKSGNRSEKEVRAAALVLQTIWGYKELRKPLEKEGWKKSDFQVNLNNASRSQSSHSYDDSTLPLIDRNQKSDKKPDREEIQMSNMGSNTKSLDNNYSTPNERGDHNRTLDRSGDLGDMEPLKGTTPLMQDEGQESLEEELDVLVLDDEGGQVSYPSMQKI

Key:
[1] = biological target: HA-tagged human P2Y2 nucleotide receptor, transiently expressed in HCAECs (human) (UniProt P41231); assay: co-IP; HCAECs expressing HA-hP2Y2R, 100 µM UTP for 5 min; lysate IP with mouse anti-HA agarose beads, IB with anti-VE-cadherin
[2] = biological target: VEGF receptor-2 (VEGFR-2), endogenous in HCAECs (human (endogenous in HCAECs)) (UniProt P35968); assay: co-IP; HCAECs, 100 µM UTP for the indicated time; lysate IP with anti-VEGFR-2 antibody, IB with anti-VE-cadherin; endogenous proteins
[3] = biological target: HA-tagged human P2Y2 nucleotide receptor, transiently expressed in HCAECs (human) (UniProt P41231); assay: condition: only 10 min after the 5 min of exposure to 100 µM UTP; co-IP; as a1, but later time point of the UTP time course (10 min after the 5 min point); IP anti-HA agarose, IB anti-VE-cadherin
[4] = biological target: HA-tagged human P2Y2 nucleotide receptor, transiently expressed in HCAECs (human) (UniProt P41231); assay: condition: only pretreatment with 1 µM PP2 or 10 µM SU1498 for 30 min; co-IP; HCAECs expressing HA-hP2Y2R, pretreated with 1 µM PP2 (Src inhibitor) or 10 µM SU1498 (VEGFR-2 inhibitor) for 30 min, then 100 µM UTP for 5 min; IP anti-HA matrix beads, IB anti-VE-cadherin
[5] = biological target: T1, vav2 (guanine nucleotide exchange factor for Rac), endogenous in HCAECs (human (endogenous in HCAECs)); assay: co-IP; HCAECs, 100 µM UTP for the indicated times, also after 1 µM PP2 or 10 µM SU1498 for 30 min; lysate IP with anti-vav2 antibody, IB with anti-p120 catenin; endogenous proteins

Binder | binding [1] | binding [2] | binding [3] | binding [4] | binding [5]
B1 | binds | binds | no binding | no binding | 
B2 |  |  |  |  | binds
